Experimental data from patent US8268772B2, “Depot preparations” (Symrise AG, priority 2001, dated 2012).
A unit is not stated for every read-out.

Assay: Sensory aldehyde intensity during the hair coloring process
Conditions: scale 1.0=odorless to 9.0=very strong

`CCCCCCCCCC(C)C=O` (stereo not drawn) [2-Methylundecanal] gave a Sensory intensity (1 min) of 4.6, a Sensory intensity (2 min) of 5.4 and a Sensory intensity (4 min) of 5.8. The Sensory intensity (8 min) was 6.0, the Sensory intensity (15 min) was 6.0 and the Sensory intensity (25 min) was 5.4.
`CCCCCCC=O` [Aldehyde C7, heptanal] gave a Sensory intensity (1 min) of 4.0, a Sensory intensity (2 min) of 5.0 and a Sensory intensity (4 min) of 6.0. The Sensory intensity (8 min) was 6.2, the Sensory intensity (15 min) was 6.2 and the Sensory intensity (25 min) was 4.4.
`CC1=CC(C)C(C=O)CC1` (stereo not drawn) [Vertocitral] showed a Sensory intensity (1 min) of 4.6, a Sensory intensity (2 min) of 5.4 and a Sensory intensity (4 min) of 5.8. It also gave a Sensory intensity (8 min) of 6.0, a Sensory intensity (15 min) of 6.0 and a Sensory intensity (25 min) of 5.4.
